# Source: US4474761A, “Oligopeptides with specific inhibiting properties of collagen induced aggregation, process for preparing the same and pharmaceutical compositions containing them” (Choay S.A., priority 1980, dated 1984)
# Not every detail of the peptide structures is certain; ends, links or a residue may be inferred. Where a SMILES comes first, the peptide text is derived from it.
# Key:
# [1] = system: platelet aggregation induced by ionophore of the A 23 187 type; assay: Platelet aggregation induced by ionophore A 23 187 (specificity test); type: cell-based; conditions: Table III; ionophore 25 μM; 830 n moles
# [2] = system: platelet aggregation induced by ADP; assay: Platelet aggregation induced by ADP (specificity test); type: cell-based; conditions: Table III; ADP 10^-6 M; 600 n moles
# [3] = system: platelet aggregation induced by thrombine; assay: Platelet aggregation induced by thrombine (specificity test); type: cell-based; conditions: Table III
# [4] = system: platelet aggregation induced by type III collagen; assay: Aggregation of platelet suspension in physiological buffer induced by type III collagen (parallel to serotonin release test); type: cell-based; conditions: Table V
# [5] = system: platelet activation induced by type III collagen (serotonin release); assay: Release of endogenous serotonin from platelets induced by type III collagen (platelet activation); type: cell-based; conditions: for Release % / % of inhibition of release: Table V
# platelet membranes = assay: Linkage of tritiated nonapeptide to platelet membranes (filtration); type: binding; conditions: for Linkage % of Nonapeptide H^3 in presence of agent: Table VIII, Nonapeptide H^3 15 ng, platelet membranes 30 μg
# Description: The study of the nature of the interaction between type III collagen and platelets is carried out in the presence of tritiated (labelled) nonapeptide of formula: […]
# The complete platelets or the platelet membranes solubilized in triton (0.15%) are incubated in a physiological buffer of the type described above in the serotonin release test (in a total volume of 0.2 ml) at a temperature of 37° C. for 15 minutes. The incubation is carried out in presence of tritiated nonapeptide the specific activity of which is of […].
# The nonapeptide fixed or linked to the platelet or to the membranes is separated from the free nonapeptide by filtration of the incubation medium through multiporous membranes having porosities of 0.8μ and 0.45μ respectively. The radio activity is directly determined on the filters and the percentage of linkages determined according to the following formula: [formula]
# (c) Table VIII relates to the linkage specificity. It represents the linkage percentages between the platelet membranes and different peptides of the invention in the presence of various aggregation inducers (15 ng of peptide, 30 μg of platelet membrane).
# The specificity of the linkage is assessed by the total displacement of the corresponding radio-activity by an excess of non labelled peptide of the invention. This excess corresponds to an amount of 100 to 1000 times more than the amount of non labelled peptide which is necessary to induce adhesion of the platelets.
# Said reversibility has been studied in the presence of two concentrations of labelled (nona)peptide which are respectively of 3 and 6 ng, for 30 μg of platelet membranes. After the binding of the labelled nonapeptide to the membranes, the incubation media are diluted to the 80 volumes:
# in the absence of non labelled (nona)peptide;
# and in the presence of an excess of non labelled (nona)peptide (as indicated under c) for the reversibility test).
# The percentage of linkage is then determined as a function of an incubation duration ranging from 0 to 15 minutes.
# The reversibility is measured by the dissociation factor and the dissociation time.
# complete platelets = assay: Linkage of nonapeptide to complete platelets (filtration); type: binding
smiles,measurement,setting,value
"NCCCC[C@H](NC(=O)[C@@H]1CCCN1C(=O)CNC(=O)[C@@H]1C[C@@H](O)CN1C(=O)[C@H](CCC(=O)O)NC(=O)CNC(=O)[C@@H]1C[C@@H](O)CN1C(=O)[C@H](CCCCN)NC(=O)CN)C(=O)O [nonapeptide (4), Gly--Lys--Hyp--Gly--Glu--Hyp--Gly--Pro--Lys] (HELM PEPTIDE1{G.K.[Hyp].G.E.[Hyp].G.P.K}$$$$V2.0)",% of inhibition of intensity,[1],0%
same,% of inhibition of velocity,[1],0%
same,Intensity,[1],81.6%
same,Velocity,[1],51.6%
same,% of inhibition of velocity,[2],0%
same,Velocity,[2],35.2%
same,Velocity,"[3]; thrombine 0.1μ, 840 n moles (control 19.6)",18.5%
same,Velocity,"[3]; thrombine 0.15μ, 840 n moles (control 30.4)",27.4%
same,Velocity % after 1 mn,"[4]; collagen 0γ, 840 n moles",0%
same,% of inhibition of velocity,"[4]; collagen 5γ, 105 n moles",34%
same,Velocity % after 1 mn,"[4]; collagen 5γ, 105 n moles",11.4%
same,% of inhibition of velocity,"[4]; collagen 5γ, 210 n moles",54%
same,Velocity % after 1 mn,"[4]; collagen 5γ, 210 n moles",8%
same,% of inhibition of velocity,"[4]; collagen 5γ, 420 n moles",63.7%
same,Velocity % after 1 mn,"[4]; collagen 5γ, 420 n moles",6.3%
same,% of inhibition of velocity,"[4]; collagen 5γ, 840 n moles",100%
same,Velocity % after 1 mn,"[4]; collagen 5γ, 840 n moles",0%
same,% of inhibition of velocity,"[4]; collagen 7γ, 210 n moles",0%
same,Velocity % after 1 mn,"[4]; collagen 7γ, 210 n moles",17%
same,% of inhibition of velocity,"[4]; collagen 7γ, 420 n moles",100%
same,Velocity % after 1 mn,"[4]; collagen 7γ, 420 n moles",0%
same,% of inhibition of velocity,"[4]; collagen 7γ, 840 n moles",100%
same,Velocity % after 1 mn,"[4]; collagen 7γ, 840 n moles",0%
same,Inhibition of the release of serotonin induced by collagen,[5]; 850 n moles,complete
same,Release %,"[5]; collagen 0γ, 840 n moles",1.3%
same,% of inhibition of release,"[5]; collagen 5γ, 105 n moles",34%
same,Release %,"[5]; collagen 5γ, 105 n moles",32.6%
same,% of inhibition of release,"[5]; collagen 5γ, 210 n moles",46%
same,Release %,"[5]; collagen 5γ, 210 n moles",27%
same,% of inhibition of release,"[5]; collagen 5γ, 420 n moles",68%
same,Release %,"[5]; collagen 5γ, 420 n moles",15.8%
same,% of inhibition of release,"[5]; collagen 5γ, 840 n moles",93%
same,Release %,"[5]; collagen 5γ, 840 n moles",3.4%
same,% of inhibition of release,"[5]; collagen 7γ, 210 n moles",15%
same,Release %,"[5]; collagen 7γ, 210 n moles",34%
same,% of inhibition of release,"[5]; collagen 7γ, 420 n moles",62%
same,Release %,"[5]; collagen 7γ, 420 n moles",15.2%
same,% of inhibition of release,"[5]; collagen 7γ, 840 n moles",80%
same,Release %,"[5]; collagen 7γ, 840 n moles",7.9%
same,Serotonin release induced by the peptide itself,[5]; without collagen,does not induce serotonin release
same,Concentration of nonapeptide up to which the linkage percentage varies linearly,platelet membranes; Table VII,≤ 12.5 ng
same,Linkage % of Nonapeptide H^3 in presence of agent,platelet membranes; agent 15 μg,0.26%
same,Linkage % of Nonapeptide H^3 in presence of agent,platelet membranes; agent 150 μg,0.7%
same,Semi-dissociation time,platelet membranes; excess of non labelled nonapeptide,2 min
same,Semi-dissociation time,platelet membranes; no non labelled nonapeptide,about 5 minutes
same,Amount of nonapeptide from which saturation is complete,complete platelets; 1.2×10^8 platelets in 0.2 ml of physiological buffer,≥ 1.2 ng
same,Linkage (%),"complete platelets; Table X, nonapeptide 20 μg, platelet concentration 0.3 × 10^8",2.35%
same,Linkage (%),"complete platelets; Table X, nonapeptide 20 μg, platelet concentration 0.6 × 10^8",3.85%
same,Linkage (%),"complete platelets; Table X, nonapeptide 20 μg, platelet concentration 1.2 × 10^8",5.1%
same,Linkage (%),"complete platelets; Table X, nonapeptide 20 μg, platelet concentration 2.4 × 10^8",7.8%
same,Linkage (%),"complete platelets; Table X, nonapeptide 20 μg, platelet concentration 4.8 × 10^8",10.4%
same,Linkage (%),"complete platelets; Table XI, platelets 0.3 × 10^8, nonapeptide 20 μg",2.35%
same,Linkage (%),"complete platelets; Table XI, platelets 0.3 × 10^8, nonapeptide 50 μg",2.5%
same,Linkage (%),"complete platelets; Table XI, platelets 0.3 × 10^8, nonapeptide 200 μg",3.1%
same,Linkage (%),"complete platelets; Table XI, platelets 0.6 × 10^8, nonapeptide 20 μg",3.85%
same,Linkage (%),"complete platelets; Table XI, platelets 0.6 × 10^8, nonapeptide 50 μg",3%
same,Linkage (%),"complete platelets; Table XI, platelets 0.6 × 10^8, nonapeptide 100 μg",3%
same,Linkage (%),"complete platelets; Table XI, platelets 0.6 × 10^8, nonapeptide 200 μg",4%
same,Linkage (%),"complete platelets; Table XI, platelets 1.2 × 10^8, nonapeptide 1.2 ng",5.1%
same,Linkage (%),"complete platelets; Table XI, platelets 1.2 × 10^8, nonapeptide 2.4 ng",5.6%
same,Linkage (%),"complete platelets; Table XI, platelets 1.2 × 10^8, nonapeptide 6 ng",4.8%
same,Linkage (%),"complete platelets; Table XI, platelets 1.2 × 10^8, nonapeptide 60 ng",5.5%
same,Linkage (%),"complete platelets; Table XI, platelets 1.2 × 10^8, nonapeptide 20 μg",5.1%
same,Linkage (%),"complete platelets; Table XI, platelets 1.2 × 10^8, nonapeptide 50 μg",6%
same,Linkage (%),"complete platelets; Table XI, platelets 1.2 × 10^8, nonapeptide 100 μg",5%
same,Linkage (%),"complete platelets; Table XI, platelets 1.2 × 10^8, nonapeptide 200 μg",5.1%
same,Linkage (%),"complete platelets; Table XI, platelets 4.8 × 10^8, nonapeptide 20 μg",0.4%
same,Linkage (%),"complete platelets; Table XI, platelets 4.8 × 10^8, nonapeptide 100 μg",8%
same,Linkage (%),"complete platelets; Table XI, platelets 4.8 × 10^8, nonapeptide 200 μg",8%
